# Reference: PMC8869308
# Amino acid sequences for entries named in this document (tags omitted).
# UniProt P39748: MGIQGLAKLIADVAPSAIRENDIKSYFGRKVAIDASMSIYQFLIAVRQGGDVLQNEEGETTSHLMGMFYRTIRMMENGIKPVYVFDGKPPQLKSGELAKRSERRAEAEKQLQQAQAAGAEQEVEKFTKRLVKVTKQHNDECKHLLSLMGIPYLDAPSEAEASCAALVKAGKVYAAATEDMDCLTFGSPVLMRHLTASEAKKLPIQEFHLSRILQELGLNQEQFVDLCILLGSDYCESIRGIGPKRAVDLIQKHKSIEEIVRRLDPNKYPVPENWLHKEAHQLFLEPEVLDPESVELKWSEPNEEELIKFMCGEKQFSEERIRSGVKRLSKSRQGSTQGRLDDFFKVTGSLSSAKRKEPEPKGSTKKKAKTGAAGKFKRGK
# UniProt Q13148: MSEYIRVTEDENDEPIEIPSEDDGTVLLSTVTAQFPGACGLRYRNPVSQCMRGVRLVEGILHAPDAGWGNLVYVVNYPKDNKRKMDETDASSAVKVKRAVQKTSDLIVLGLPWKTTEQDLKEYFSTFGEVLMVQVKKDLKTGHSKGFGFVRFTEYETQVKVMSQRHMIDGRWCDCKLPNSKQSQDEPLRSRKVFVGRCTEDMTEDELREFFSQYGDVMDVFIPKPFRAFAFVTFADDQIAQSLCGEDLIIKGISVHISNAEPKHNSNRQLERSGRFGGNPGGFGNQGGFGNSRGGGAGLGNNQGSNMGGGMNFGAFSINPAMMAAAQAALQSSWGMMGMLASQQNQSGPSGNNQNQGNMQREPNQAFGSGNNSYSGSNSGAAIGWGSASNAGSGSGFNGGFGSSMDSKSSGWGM
# UniProt Q96AE4: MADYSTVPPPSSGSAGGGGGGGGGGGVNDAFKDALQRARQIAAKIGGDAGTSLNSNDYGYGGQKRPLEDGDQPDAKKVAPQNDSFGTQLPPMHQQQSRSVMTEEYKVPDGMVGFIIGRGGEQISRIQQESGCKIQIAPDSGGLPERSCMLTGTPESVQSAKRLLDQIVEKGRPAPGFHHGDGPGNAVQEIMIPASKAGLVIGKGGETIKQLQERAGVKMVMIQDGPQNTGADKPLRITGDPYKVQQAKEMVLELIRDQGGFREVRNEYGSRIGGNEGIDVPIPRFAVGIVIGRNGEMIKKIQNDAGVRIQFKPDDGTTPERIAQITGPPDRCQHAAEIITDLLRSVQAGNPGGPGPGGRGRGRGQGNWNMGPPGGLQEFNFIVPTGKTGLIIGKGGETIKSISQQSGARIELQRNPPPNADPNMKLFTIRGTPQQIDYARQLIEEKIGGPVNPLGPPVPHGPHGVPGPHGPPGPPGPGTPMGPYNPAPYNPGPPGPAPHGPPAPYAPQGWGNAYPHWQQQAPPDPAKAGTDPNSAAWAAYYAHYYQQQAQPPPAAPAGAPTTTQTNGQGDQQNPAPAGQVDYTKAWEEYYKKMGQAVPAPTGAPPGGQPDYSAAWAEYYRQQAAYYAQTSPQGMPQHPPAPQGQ
# UniProt P15927: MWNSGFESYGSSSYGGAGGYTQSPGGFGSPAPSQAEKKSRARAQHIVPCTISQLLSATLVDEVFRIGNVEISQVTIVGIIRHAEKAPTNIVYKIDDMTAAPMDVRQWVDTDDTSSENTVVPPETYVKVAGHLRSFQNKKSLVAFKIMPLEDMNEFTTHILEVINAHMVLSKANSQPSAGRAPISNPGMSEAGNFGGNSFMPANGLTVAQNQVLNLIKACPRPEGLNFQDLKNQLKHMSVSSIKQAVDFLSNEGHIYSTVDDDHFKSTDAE
# UniProt P22061: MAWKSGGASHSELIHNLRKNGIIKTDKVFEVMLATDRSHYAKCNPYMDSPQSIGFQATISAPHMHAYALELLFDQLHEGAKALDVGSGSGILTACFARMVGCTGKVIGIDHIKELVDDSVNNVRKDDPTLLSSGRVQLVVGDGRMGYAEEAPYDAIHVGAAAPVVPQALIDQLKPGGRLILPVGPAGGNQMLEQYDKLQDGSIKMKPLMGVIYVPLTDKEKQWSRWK
# Results are given in words; binding and its absence hold for the method and conditions named. Binding seen in cells or lysates may run through a third protein. Some binding calls cover weakened binding; strength is not graded here.
# T1: T-cell intracellular antigen 1 (human) (UniProt P31483)
# T1 sequence: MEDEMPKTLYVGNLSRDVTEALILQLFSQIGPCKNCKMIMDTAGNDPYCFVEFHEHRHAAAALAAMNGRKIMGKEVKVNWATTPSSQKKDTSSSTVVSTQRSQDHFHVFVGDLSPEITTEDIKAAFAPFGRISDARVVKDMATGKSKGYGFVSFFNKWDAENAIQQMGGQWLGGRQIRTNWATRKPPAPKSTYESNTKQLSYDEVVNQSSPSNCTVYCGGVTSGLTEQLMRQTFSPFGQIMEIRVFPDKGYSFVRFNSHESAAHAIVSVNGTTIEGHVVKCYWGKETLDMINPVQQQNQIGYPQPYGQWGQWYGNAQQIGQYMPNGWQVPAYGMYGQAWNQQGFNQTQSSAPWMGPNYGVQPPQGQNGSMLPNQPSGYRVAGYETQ
# B1: translocase of outer mitochondrial membrane 40 (protein, UniProt O96008 1-361)
# chain: MGNVLAASSPPAGPPPPPAPALVGLPPPPPSPPGFTLPPLGGSLGAGTSTSRSSERTPGAATASASGAAEDGACGCLPNPGTFEECHRKCKELFPIQMEGVKLTVNKGLSNHFQVNHTVALSTIGESNYHFGVTYVGTKQLSPTEAFPVLVGDMDNSGSLNAQVIHQLGPGLRSKMAIQTQQSKFVNWQVDGEYRGSDFTAAVTLGNPDVLVGSGILVAHYLQSITPCLALGGELVYHRRPGEEGTVMSLAGKYTLNNWLATVTLGQAGMHATYYHKASDQLQVGVEFEASTRMQDTSVSFGYQLDLPKANLLFKGSVDSNWIVGATLEKKLPPLPLTLALGAFLNHRKNKFQCGFGLTIG
# B2: peptidase mitochondrial processing subunit beta (protein, UniProt O75439 44-489)
# chain: STQAATQVVLNVPETRVTCLESGLRVASEDSGLSTCTVGLWIDAGSRYENEKNNGTAHFLEHMAFKGTKKRSQLDLELEIENMGAHLNAYTSREQTVYYAKAFSKDLPRAVEILADIIQNSTLGEAEIERERGVILREMQEVETNLQEVVFDYLHATAYQNTALGRTILGPTENIKSISRKDLVDYITTHYKGPRIVLAAAGGVSHDELLDLAKFHFGDSLCTHKGEIPALPPCKFTGSEIRVRDDKMPLAHLAIAVEAVGWAHPDTICLMVANTLIGNWDRSFGGGMNLSSKLAQLTCHGNLCHSFQSFNTSYTDTGLWGLYMVCESSTVADMLHVVQKEWMRLCTSVTESEVARARNLLKTNMLLQLDGSTPICEDIGRQMLCYNRRIPIPELEARIDAVNAETIREVCTKYIYNRSPAIAAVGPIKQLPDFKQIRSNMCWLRD
# Biological target: T1, T-cell intracellular antigen 1 (human)
# Experiment: co-IP; TIA1-overexpressing SK-N-SH cells treated with or without sodium arsenite; non-denaturing PLB lysate; anti-TIA1 antibody or IgG as control, protein A/G magnetic beads; immunoblot
row,Molecule,binding
1,Flap structure-specific endonuclease 1 (from UniProt P39748 1-380),binds
2,TAR DNA-binding protein 43 (from UniProt Q13148 1-414),binds
3,far upstream element binding protein 1 (from UniProt Q96AE4 1-644),binds
4,Replication protein A2 (from UniProt P15927 1-270),binds
5,protein-L-isoaspartate O-methyltransferase (from UniProt P22061 1-227),binds
6,B1,binds
7,B2,binds
